This passage reports binding results from publication PMC8394894.

Sequences of proteins named here, by UniProt entry; tags and fusion partners are left off.
UniProt Q6ZNE5: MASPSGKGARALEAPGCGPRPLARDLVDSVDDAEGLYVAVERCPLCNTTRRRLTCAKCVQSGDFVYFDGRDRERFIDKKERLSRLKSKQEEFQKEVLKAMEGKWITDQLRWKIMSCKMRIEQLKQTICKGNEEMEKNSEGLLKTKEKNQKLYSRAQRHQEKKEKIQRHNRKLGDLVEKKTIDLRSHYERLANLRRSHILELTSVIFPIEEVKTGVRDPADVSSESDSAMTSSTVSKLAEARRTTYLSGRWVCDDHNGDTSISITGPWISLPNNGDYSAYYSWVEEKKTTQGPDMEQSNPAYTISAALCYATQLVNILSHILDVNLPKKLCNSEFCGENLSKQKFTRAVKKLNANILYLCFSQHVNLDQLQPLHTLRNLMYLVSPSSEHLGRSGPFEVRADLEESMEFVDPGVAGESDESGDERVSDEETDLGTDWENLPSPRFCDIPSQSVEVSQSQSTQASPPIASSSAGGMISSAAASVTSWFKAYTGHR

Results are given in words; binding and its absence hold for the method and conditions named. In cells and extracts the contact can be indirect. Some results given as binding are weak or reduced against the parent protein; the word gives no strength.

The target of the test is 3 × Flag-ATG14 (UniProt Q6ZNE5). The test can be described thus: co-IP; HeLa cell lysates overexpressing 3 x Flag-ATG14 incubated with anti-Flag M2 agarose beads at 4 °C overnight, three washes, eluted with 2 x SDS sample buffer, Western blot for SNAP47 and Flag. For orientation: Immunoblotting shows a protein as a band on a membrane.

B1: SNAP47 (synaptosome associated protein 47) (protein, UniProt Q5SQN1 1-464)
chain: MRAARRGLHCAGAERPRRRGRLWDSSGVPQRQKRPGPWRTQTQEQMSRDVCIHTWPCTYYLEPKRRWVTGQLSLTSLSLRFMTDSTGEILVSFPLSSIVEIKKEASHFIFSSITILEKGHAKHWFSSLRPSRNVVFSIIEHFWRELLLSQPGAVADASVPRTRGEELTGLMAGSQKRLEDTARVLHHQGQQLDSVMRGLDKMESDLEVADRLLTELESPAWWPFSSKLWKTPPETKPREDVSMTSCEPFGKEGILIKIPAVISHRTESHVKPGRLTVLVSGLEIHDSSSLLMHRFEREDVDDIKVHSPYEISIRQRFIGKPDMAYRLISAKMPEVIPILEVQFSKKMELLEDALVLRSARTSSPAEKSCSVWHAASGLMGRTLHREPPAGDQEGTALHLQTSLPALSEADTQELTQILRRMKGLALEAESELERQDEALDGVAAAVDRATLTIDKHNRRMKRLT
As for B1, the binding entry is reported as “binds”.
